Measured data: PubChem BioAssay AID686943 (Drosophila RNAi Screening Center, 2013)
The deposit covers about 23,000 reagents; this is an unselected part of those that have a named target and a result. 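Extra replicates exist only for a retested subset of genes; insulin dose and duration not given; both raised and lowered dpERK matter.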 Reagents against one gene are numbered here. Not all columns of the deposit are shown. Not given: the amount of reagent, the time to read-out.

- Purpose: 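Knockdowns that increase or decrease active ERK after insulin receptor stimulation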 (primary screen)
- System: Drosophila S2R+ haemocyte-like cells expressing YFP-tagged ERK (Rolled)
- Reagent: long dsRNA against Drosophila genes
- Conditions: insulin stimulation versus unstimulated cells; dose and duration not given
- Detection: 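Per-plate z-scores of phospho-ERK immunostaining normalised to YFP-tagged ERK, measured with and without insulin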
- Direction: replicate 1, z-score of dpERK with insulin and replicate 2, z-score of dpERK with insulin: higher = more active ERK per ERK-YFP after insulin

nudC #1 → replicate 1, z-score of dpERK with insulin = 0.5; replicate 2, z-score of dpERK with insulin = 0.41
nudC #2 → replicate 1, z-score of dpERK with insulin = 0.93; replicate 2, z-score of dpERK with insulin = 1.86
RtcB → replicate 1, z-score of dpERK with insulin = 0.74; replicate 2, z-score of dpERK with insulin = 1.1
CG13476 → replicate 1, z-score of dpERK with insulin = 0.65; replicate 2, z-score of dpERK with insulin = -1.27
Or94a → replicate 1, z-score of dpERK with insulin = 0.12; replicate 2, z-score of dpERK with insulin = -0.08
CG11839 → replicate 1, z-score of dpERK with insulin = -0.04; replicate 2, z-score of dpERK with insulin = 0.04
Ir87a → replicate 1, z-score of dpERK with insulin = 1.03; replicate 2, z-score of dpERK with insulin = -1.65
sigmar → replicate 1, z-score of dpERK with insulin = 0.98; replicate 2, z-score of dpERK with insulin = 0.52
CG13041 → replicate 1, z-score of dpERK with insulin = -0.09; replicate 2, z-score of dpERK with insulin = 0.06
Srg1 → replicate 1, z-score of dpERK with insulin = 0.51; replicate 2, z-score of dpERK with insulin = 0
CG11983 → replicate 1, z-score of dpERK with insulin = -0.42; replicate 2, z-score of dpERK with insulin = -0.11
CG14104 → replicate 1, z-score of dpERK with insulin = 0.5; replicate 2, z-score of dpERK with insulin = -0.19

Records listed so far whose gene name starts with N or n (2):
nudC #1 → replicate 1, z-score of dpERK with insulin = 0.5; replicate 2, z-score of dpERK with insulin = 0.41
nudC #2 → replicate 1, z-score of dpERK with insulin = 0.93; replicate 2, z-score of dpERK with insulin = 1.86
